Measurements published in paper PMC10269783.

Chains of the proteins cited; added tags and fusions are not shown. Lines headed by an entry give the natural chain unless they say otherwise; changes in a name come on top.
UniProt Q8I5N7: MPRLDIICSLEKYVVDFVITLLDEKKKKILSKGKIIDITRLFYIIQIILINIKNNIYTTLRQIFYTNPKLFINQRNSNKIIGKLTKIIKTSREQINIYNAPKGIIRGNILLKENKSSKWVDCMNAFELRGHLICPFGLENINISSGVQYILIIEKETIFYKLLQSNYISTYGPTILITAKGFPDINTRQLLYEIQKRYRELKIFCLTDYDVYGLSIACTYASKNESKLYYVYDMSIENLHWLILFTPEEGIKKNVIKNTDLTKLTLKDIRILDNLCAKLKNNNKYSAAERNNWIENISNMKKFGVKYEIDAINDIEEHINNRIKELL
UniProt Q8ID53: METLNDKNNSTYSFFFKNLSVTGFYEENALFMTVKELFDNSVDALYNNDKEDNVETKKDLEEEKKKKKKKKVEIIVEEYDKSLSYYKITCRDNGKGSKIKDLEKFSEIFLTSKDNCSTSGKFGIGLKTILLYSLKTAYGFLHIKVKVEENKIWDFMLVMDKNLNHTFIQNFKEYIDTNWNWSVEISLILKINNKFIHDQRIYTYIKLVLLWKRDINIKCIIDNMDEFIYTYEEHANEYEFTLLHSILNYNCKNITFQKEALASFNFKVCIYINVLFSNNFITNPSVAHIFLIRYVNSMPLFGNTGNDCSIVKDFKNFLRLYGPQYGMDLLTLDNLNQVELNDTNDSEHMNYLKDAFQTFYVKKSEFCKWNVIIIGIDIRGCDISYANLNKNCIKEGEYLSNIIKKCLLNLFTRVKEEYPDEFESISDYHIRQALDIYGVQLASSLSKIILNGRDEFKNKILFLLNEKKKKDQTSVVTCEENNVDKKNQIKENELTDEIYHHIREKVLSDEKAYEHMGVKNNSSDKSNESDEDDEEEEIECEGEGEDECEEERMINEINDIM

Biological target: Plasmodium falciparum Spo11 (Plasmodium falciparum (endogenous in 3D7 parasites)) (UniProt Q8I5N7)
Experiment: co-IP; Pierce cross-link IP kit; anti-PfSpo11 antibody cross-linked (DSS) to protein A/G Plus agarose; lysate of synchronized late schizont stage parasites in IP lysis buffer (0.025 M Tris, 0.15 M NaCl, 0.001 M EDTA, 1% NP-40, 5% glycerol, pH 7.4), overnight; pellet probed with PfTopoVIB antibody; IgG as control

In the case of “Plasmodium falciparum topoisomerase VIB (from UniProt Q8ID53)”, the binding is reported as “binds”.

These are yes or no findings as the source states them, for the method shown. In cells and extracts the contact can be indirect. Binding can be weak; no strength is given.
